PubChem BioAssay AID602196 | INSERM – 2012
The deposit covers about 23,000 reagents; below is a random part of them. Over the whole deposit, 455 (2%) got an active call. 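Active includes both protection and sensitisation; some change values fall well beyond the stated -50 to +50 range.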 Not all columns of the deposit are shown. Not stated in the record: the amount of reagent.

Screen: 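Genes whose knock-down alters cisplatin killing of lung cancer cells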
System: human A549 lung cancer cells
Reagents: siRNA pair against human genes
Duration: 48 h transfection before cisplatin; time from cisplatin to read-out not stated
Conditions: cisplatin at a dose killing half of control-siRNA cells; exact dose and duration not given
Detection: 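Cisplatin cell death as a shift from the 50% death seen with control siRNA; siRNAs toxic or growth-blocking alone scored 0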
Reading the numbers: two-siRNA summed score (-2 to +2): higher = both siRNAs protect from cisplatin killing; -2 means both sensitise
Rule for the call: 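siRNAs harmful alone (LDH or WST-1) get 0; others get +1 for less and -1 for more cisplatin killing; genes are active when the two siRNAs give the same sign, summing to ±2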
Meaning of the calls: active = both siRNAs shift cisplatin killing the same way; inactive = no consistent shift, or siRNA harmful alone

PSME4 → two-siRNA summed score (-2 to +2): 0; activity call: inactive
OGFOD1 → two-siRNA summed score (-2 to +2): 0; activity call: inactive
ZNF599 → two-siRNA summed score (-2 to +2): 0; activity call: inactive
LOC401123 (retired record) → two-siRNA summed score (-2 to +2): 0; activity call: inactive
BPIFB6 → two-siRNA summed score (-2 to +2): 0; activity call: inactive
ADRA2A → two-siRNA summed score (-2 to +2): 0; activity call: inactive
MYL12A → two-siRNA summed score (-2 to +2): 1; activity call: inactive
KIAA1688 → two-siRNA summed score (-2 to +2): 0; activity call: inactive
LINC00635 → two-siRNA summed score (-2 to +2): 0; activity call: inactive
ZNF711 → two-siRNA summed score (-2 to +2): -1; activity call: inactive
CDHR5 → two-siRNA summed score (-2 to +2): 0; activity call: inactive
LOC440561 → two-siRNA summed score (-2 to +2): 0; activity call: inactive
PIGF → two-siRNA summed score (-2 to +2): 0; activity call: inactive
RTL6 → two-siRNA summed score (-2 to +2): 0; activity call: inactive
CPSF4 → two-siRNA summed score (-2 to +2): 0; activity call: inactive
LOC440105 → two-siRNA summed score (-2 to +2): 0; activity call: inactive
UST → two-siRNA summed score (-2 to +2): 0; activity call: inactive
KRTAP10-10 → two-siRNA summed score (-2 to +2): 0; activity call: inactive
SLCO4A1 → two-siRNA summed score (-2 to +2): 0; activity call: inactive
ERG28 → two-siRNA summed score (-2 to +2): 0; activity call: inactive
FAM182A → two-siRNA summed score (-2 to +2): 0; activity call: inactive
FAM27E5 → two-siRNA summed score (-2 to +2): 0; activity call: inactive
LINC01801 → two-siRNA summed score (-2 to +2): 0; activity call: inactive
GZMH → two-siRNA summed score (-2 to +2): 1; activity call: inactive
PHETA1 → two-siRNA summed score (-2 to +2): 1; activity call: inactive
LOC387934 → two-siRNA summed score (-2 to +2): 1; activity call: inactive
SCNN1B → two-siRNA summed score (-2 to +2): 1; activity call: inactive
EDA → two-siRNA summed score (-2 to +2): 0; activity call: inactive
IDS → two-siRNA summed score (-2 to +2): 0; activity call: inactive
POT1 → two-siRNA summed score (-2 to +2): 0; activity call: inactive
BHLHA15 → two-siRNA summed score (-2 to +2): 0; activity call: inactive

Entries listed so far whose target name starts with L or l (6):
LOC401123 (retired record) → two-siRNA summed score (-2 to +2): 0; activity call: inactive
LINC00635 → two-siRNA summed score (-2 to +2): 0; activity call: inactive
LOC440561 → two-siRNA summed score (-2 to +2): 0; activity call: inactive
LOC440105 → two-siRNA summed score (-2 to +2): 0; activity call: inactive
LINC01801 → two-siRNA summed score (-2 to +2): 0; activity call: inactive
LOC387934 → two-siRNA summed score (-2 to +2): 1; activity call: inactive
